Measured values from patent EP4696306A1, “ADENOSINE TRIPHOSPHATE SECRETION INHIBITOR, HEPATIC STELLATE CELL ACTIVATION INHIBITOR, HEPATIC STELLATE CELL DEACTIVATOR, HEPATIC FIBROSIS THERAPEUTIC AGENT, NON-ALCOHOLIC STEATOHEPATITIS THERAPEUTIC AGENT, PSORIASIS THERAPEUTIC AGENT, AND USE OF COMPOUND FOR PRODUCING ADENOSINE TRIPHOSPHATE …” (KURUME UNIVERSITY, priority 2023, dated 2024).
At least one compound was matched to its structure with a doubt left.

Test system: human epidermal keratinocytes
Test: ATP secretion promoted by ionomycin in keratinocytes
Type: cell-based
Details: 6 hours incubation, then 20 minutes with ionomycin, N = 4
Procedure: Human epidermal keratinocytes (Cryopreserved HEK, Lot 1758, Cell Applications Inc.) were cultured using an Epivita Keratinocyte Growth Medium Kit according to the manufacturer's instructions. The procedure was as follows. A supplement medium was added to a hydrocortisone-containing basal medium included in the medium preparation kit to prepare a complete medium. The medium in the dish was removed by aspiration. The cells were washed with 5 ml of BSS (Gbco), and then the BSS was removed by aspiration. After addition of 5 to 6 ml of trypsin/EDTA solution (Gbco), the dish was incubated at 37°C for 2 minutes. […]
ATP secretion by human epidermal keratinocytes (hereinafter referred to as "keratinocytes") was measured. […]
Keratinocytes were cultured at 2.5 × 10^4 cells/well in a 24-well plate at 37°C in 5% CO2 for 4 days. […] ATP in the supernatant was quantified using a Dojindo ATP assay kit - Luminescence (manufactured by Dojindo Laboratories).
After culturing keratinocytes, the medium was removed by aspiration, and replaced with Krebs/Iono(-), or Krebs/Iono(-) supplemented with 10 µM imeglimin, 0.1 µM EPA, 1 µM EPA, or 10 µM clodronate, followed by incubation for 6 hours. […] ATP in the supernatant was quantified using a Dojindo ATP assay kit - Luminescence (manufactured by Dojindo Laboratories). […]

CC/C=C\C/C=C\C/C=C\C/C=C\C/C=C\CCCC(=O)O [EPA, eicosapentaenoic acid]
ATP secretion promoted by ionomycin (0.1 µM EPA): inhibited
ATP secretion promoted by ionomycin (1 µM EPA): inhibited
